Source: US6031073A, “Cyclic polypeptides comprising a thioether linkage and methods for their preparation” (La Jolla Pharmaceutical Company, priority 1997, dated 2000)
At least one peptide structure holds a part that was inferred or is arguable (an end, a ring closure or a residue). Numbered stars: 1 amine (or outer) side, 2 acyl side, 3 side chain; on linkers, the order of the positions; unused ones are H or OH. Bridge positions count the residues as written; N and C are the ends. Square brackets hold non-standard residues; d marks the D form. Peptide text beside a SMILES is read from it. Abu(4-yl) = O=C([C@H](CC[*:3])N[*:1])[*:2]; hCys = N[C@@H](CCS)C(=O)O

Key:
[1] = molecular target: anticardiolipin antibody (serum of patient ACA-6501); assay: competitive ELISA, binding of patient ACA-6501 serum to cardiolipin/β2-GPI coated plate; details: amount of peptide that inhibited the human serum's binding by 50%; serum of patient ACA-6501 (GPL score 1500)
Experimental: (§1) The binding affinities of a number of the thioether cyclic polypeptides of the present invention to anticardiolipin antibody were determined by a competitive ELISA (i.e., enzyme-linked immunosorbent assay) and compared with binding affinities of the corresponding disulfide cyclic polypeptides (e.g., 3G3, 2G3, and G3).
(§2) Of 96 wells of a flat-bottom Immulon I microtiter plate (Dynatech Labs, Alexandria, Va.), 94 wells were coated with […] cardiolipin per well in 30 mL, of ethanol. The remaining two wells were used as controls and each received 30 mL, of ethanol. After overnight evaporation at 4° C., the plate was blocked for 2 hours at room temperature with 200 mL of 5% (w/v) fish gelatin in phosphate buffered saline (i.e., PBS, 0.15 M NaCl and 0.01 M Na2 HPO4 at pH 7.2). The plate was washed five times in Tris buffered saline (i.e., TBS, 0.15 M NaCl and 0.05 M Tris-HCl at pH 8.5). Then, β2 -glycoprotein I (i.e., β2 -GPI) was added as […] of 2.3% (v/v) IgG-depleted human serum (Sigma Chemical Co.) and incubated for 2 hours at room temperature.
(§3) During this incubation, peptide solutions (around 2 mg/mL) were prepared by dissolving thioether cyclic peptides in 3% fish gelatin in TBS. The serums of patient ACA-6501, who has a GPL (i.e., IgG Phospholipid) score of 1500, and patient ACA-6701, who has a GPL score of 102, were diluted about 40-fold in 3% fish gelatin in TBS-PBS (1:1). Variable amounts of each of peptides were combined with 22 mL of each of the diluted human serums and then made up to the final volume of 220 mL with 3% fish gelatin in TBS-PBS (1:1). For each peptide, at least four peptide concentrations were employed and each data point was determined in duplicate.
(§4) After 5 washes with TFBS, 100 mL of the peptide/human serum solution was added and the microplate was agitated at 40 rpm in an orbital shaker (American Scientific, Rotator V) for one hour at room temperature. The plate was washed extensively with TBS (5 times) and 100 mL of diluted (1/1000) alkaline phosphatase-conjugated goat anti-human IgG (Zymed, South San Francisco, Calif.) in 0.5% (w/v) BSA-TBS was added to each well (i.e., bovine serum albumin, BSA). The plate was then incubated for one hour at room temperature followed by addition of […]/well of PPMP solution (3 g/L phenolphthalein monophosphate plus 26.7 g/L 2-amino-2-methyl-1-propanol in water). The plate was allowed to develop at room temperature for 21 min and the reaction was stopped by adding 50 mL of 0.2 M Na2 HPO4 (Mallinckrodt) to each well. Blanks consisted of protein-coated wells that received similar treatment except human serum was not added to these wells. The plate was read at 550 nm using a microplate reader (Bio-Tek Instruments, Model EL 311).
(§5) Absorbance vs. amount of peptide added was plotted using Graph Pad Prism (Graph Pad Software, Inc.). The amount of peptide that inhibited the human serum's binding by 50%, known as IC50, was calculated from the graph at the intersection of half-maximal absorbance with amount of peptide added.

[2] = molecular target: anticardiolipin antibody (serum of patient ACA-6701); assay: competitive ELISA, binding of patient ACA-6701 serum to cardiolipin/β2-GPI coated plate; details: amount of peptide that inhibited the human serum's binding by 50%; serum of patient ACA-6701 (GPL score 102)
Experimental: as §1, §2, §3, §4, §5

Structure (SMILES)	IC50 [1] [µM]	IC50 [2] [µM]
CC(C)C[C@@H]1NC(=O)[C@@H](NC(=O)[C@@H]2CCCN2C(=O)CN)CSSC[C@@H](C(=O)N2CCC[C@H]2C(=O)NCC(=O)O)NC(=O)[C@H](CC(C)C)NC(=O)[C@H](CCCCN)NC(=O)CNC(=O)[C@H](CC(C)C)NC(=O)[C@H](C(C)C)NC(=O)CNC1=O [2G3, GPCLGVLGKLCPG, reference compound] (H-GPCLGVLGKLCPG-OH; disulfide 3-11)	190	165
CC(C)C[C@@H]1NC(=O)[C@@H](NC(=O)[C@@H]2CCCN2C(=O)CN)CCSCC[C@@H](C(=O)N2CCC[C@H]2C(=O)NCC(=O)O)NC(=O)[C@H](CC(C)C)NC(=O)[C@H](CCCCN)NC(=O)CNC(=O)[C@H](CC(C)C)NC(=O)[C@H](C(C)C)NC(=O)CNC1=O [2G3-EETE] (H-GP[Abu(4-yl)]LGVLGKL[hCys]PG-OH; thioether 3-11)	~704	480
CC(C)C[C@@H]1NC(=O)[C@@H](NC(=O)[C@@H]2CCCN2C(=O)CN)CCSC[C@@H](C(=O)N2CCC[C@H]2C(=O)NCC(=O)O)NC(=O)[C@H](CC(C)C)NC(=O)[C@H](CCCCN)NC(=O)CNC(=O)[C@H](CC(C)C)NC(=O)[C@H](C(C)C)NC(=O)CNC1=O [2G3-EMTE] (H-GP[Abu(4-yl)]LGVLGKLCPG-OH; thioether 3-11)	461	377
CC(C)C[C@@H]1NC(=O)[C@@H](NC(=O)[C@@H]2CCCN2C(=O)CNC(=O)[C@H](C)N)CSSC[C@@H](C(=O)N2CCC[C@H]2C(=O)NCC(=O)O)NC(=O)[C@H](CC(C)C)NC(=O)[C@H](CCCCN)NC(=O)CNC(=O)[C@H](CC(C)C)NC(=O)[C@H](C(C)C)NC(=O)CNC1=O [3G3, AGPCLGVLGKLCPG, reference compound] (H-AGPCLGVLGKLCPG-OH; disulfide 4-12)	857	491
CC(C)C[C@@H]1NC(=O)[C@H](CCCCN)NC(=O)CNC(=O)[C@H](CC(C)C)NC(=O)[C@H](C(C)C)NC(=O)CNC(=O)[C@H](CC(C)C)NC(=O)[C@@H](N)CSSC[C@@H](C(N)=O)NC1=O [G3, CLGVLGKLC, reference compound] (H-CLGVLGKLC-NH2; disulfide 1-9)	111	44
